From patent publication EP4545548B1, “INSECT NEUROPEPTIDES” (Solasta Bio Limited, priority 2023, dated 2025)
Part of at least one peptide drawing is inferred or uncertain, most often the ends. Where a SMILES comes first, the peptide text is derived from it. [ ]: non-standard residue; d: D form. pGlu = O=C1CC[C@@H](C(=O)O)N1

Columns and labels:
Type in all cases: in vivo
Aphis gossypii = assay: AgriScience field trial (Greece), aphids on cotton crop; details: unformulated SB-P-47, counted 3 days following application, Figure 12
Myzus persicae = assay: Leaf dip assay (based on IRAC susceptibility test method 019), mortality assessment; details: unformulated SB-P-47, mortality assessed at 72, 96 and 120 hours, compared with vehicle and Spirotetramat, Figures 6 and 7
Aphis fabae = assay: PGRO field trials (UK), aphid numbers on crop; details: unformulated SB-P-47

Question: Which results are given for `CC[C@H](C)[C@H](NC(=O)[C@H](C)NC(=O)[C@@H]1CCC(=O)N1)C(=O)N[C@@H](CCSC)C(=O)N[C@@H](C)C(=O)N[C@@H](CCCNC(=N)N)C(=O)N1CCC[C@H]1C(=O)N[C@@H](CCC(N)=O)C(=O)N[C@H](C(=O)N1CCC[C@H]1C(=O)N[C@@H](CCCNC(=N)N)C(=O)N[C@@H](CC(C)C)C(N)=O)C(C)C` [SB-P-47, [Pyr]-AIMARPQVPRL-[NH2]] ([pGlu]AIMARPQVPRL-NH2)?
Answer: insecticidal activity (reduction in Aphis gossypii numbers) (Aphis gossypii): close efficacy to the conventional pesticide equivalent tested; activity of SB-P-47 against Myzus persicae (Myzus persicae): good activity; efficacy (reduction in Aphis fabae numbers) (Aphis fabae; third PGRO trial (slot trial), Holbeach location, vining peas, counted 7 days following application, low aphid infestation, Figure 11): performed as efficaciously as the conventional pesticides tested; activity against naturally infested Aphis fabae (Aphis fabae; 4 and 8 days after application, compared with Hallmark Zeon, Figure 14): acted comparably to Hallmark Zeon insecticide; activity on aphid management (reduction in Aphis fabae numbers) (Aphis fabae; Wigtoft location, vining peas, counted 4 days following application, Figure 10): highly efficacious activity
